Experimental data from patent US6124380A, “Metal containing e-coat catalysts optionally with tin catalysts” (priority 1999, dated 2000).
Where “and” joins values, the source holds several entries; their conditions need not be identical. Equal entries are not always repeated.

Key:
[1] = MIBK rub test of cured E-coat panels (abrasion rating, degree of cure); parameters: key: 1: No noticeable effect on coating; 2: Faint abrasion of coating; 3: Moderate abrasion of coating; 4: Significant abrasion of coating; 5: Metal surface exposed; settings: 20 min, 0.53 weight % tin on solids
[2] = Solvent extraction test: acetone resistance (% weight loss) of cured coating
[3] = MIBK double rubs on cured panels
[4] = Gel time, powder coating formulation, Brookfield Viscometer; settings: cure at 150° C., […] Sn; for Increase in viscosity: >60 min
[5] = Gel time / viscosity, free isocyanate with polyol, Brookfield Viscometer; settings: 67° F.
[6] = 150° C. cure, 0.25% Sn on solids
[7] = 150° C. cure, 0.5% Sn on solids
[8] = 180° C. cure, 0.25% Sn on solids
[9] = 180° C. cure, 0.5% Sn on solids
[10] = 220 volts, 150° C. cure, 0.25% Sn on solids
[11] = 220 volts, 150° C. cure, 0.5% Sn on solids
[12] = 220 volts, 150° C. cure, 1% Sn on solids
[13] = 220 volts, 180° C. cure, 0.25% Sn on solids
[14] = 220 volts, 180° C. cure, 0.5% Sn on solids
[15] = 220 volts, 180° C. cure, 1% Sn on solids
[16] = 140 °C cure, 0.90% metal on solids
[17] = 150 °C cure, 0.90% metal on solids
[18] = 160 °C cure, 0.90% metal on solids
[19] = 180 °C cure, 0.90% metal on solids
[20] = 200 °C cure, 0.90% metal on solids

Compound: CCC[CH2][Sn](=[O])[CH2]CCC [DBTO, Dibutyltin oxide, reference compound]
- Rating for Abrasion by MIBK Rub Test ([1]; 135 °C oven): 5
- Rating for Abrasion by MIBK Rub Test ([1]; 148.8 °C oven): 4
- Rating for Abrasion by MIBK Rub Test ([1]; 165.5-185 °C oven): 1
- % Weight Loss (acetone) ([2]; control, 150 °C cure, 0.5% metal on solids): 52.5%
- % Weight Loss (acetone) ([2]; control, 150 °C cure, 1.0% metal on solids): 32.7%
- % Weight Loss (acetone) ([2]; control, 160 °C cure, 0.5% metal on solids): 20.5%
- % Weight Loss (acetone) ([2]; control, 160 °C cure, 1.0% metal on solids): 3.5%
- % Weight Loss (acetone) ([2]; control, 180 °C cure, 1.0% metal on solids): 0.2%
- % Weight Loss (acetone) ([2]; control, 200 °C cure, 0.5% metal on solids): 1.1%
- % Weight Loss (acetone) ([2]; control, 200 °C cure, 1.0% metal on solids): 2.9%
- MIBK Double Rubs [3, 6]: 2
- MIBK Double Rubs [3, 7]: 5
- MIBK Double Rubs ([3]; 150° C. cure, 1% Sn on solids): 30
- MIBK Double Rubs [3, 8]: ≥ 200
- MIBK Double Rubs [3, 9]: ≥ 200
- MIBK Double Rubs ([3]; 180° C. cure, 1% Sn on solids): ≥ 200
- MIBK Double Rubs ([3]; Table 10, 150 °C cure, 0.5% metal on solids): 5
- MIBK Double Rubs ([3]; Table 10, 150 °C cure, 1.0% metal on solids): 30
- MIBK Double Rubs ([3]; Table 10, 180 °C cure, 0.5% metal on solids): ≥ 200
- MIBK Double Rubs ([3]; Table 10, 180 °C cure, 1.0% metal on solids): ≥ 200

Compound: CCC[CH2][Sn]([CH2]CCC)([CH2]CCC)[O][Sn]([CH2]CCC)([CH2]CCC)[CH2]CCC [TBTO, Bis(tributyltin) oxide]
- Rating for Abrasion by MIBK Rub Test ([1]; 135 °C oven): 4
- Rating for Abrasion by MIBK Rub Test ([1]; 148.8 °C oven): 1
- Rating for Abrasion by MIBK Rub Test ([1]; 165.5-185 °C oven): 1
- MIBK Double Rubs [3, 7]: 20
- MIBK Double Rubs ([3]; 150° C. cure, 1% Sn on solids): ≥ 200
- MIBK Double Rubs [3, 8]: ≥ 200
- MIBK Double Rubs [3, 9]: ≥ 200
- MIBK Double Rubs ([3]; 180° C. cure, 1% Sn on solids): ≥ 200

Compound: CCCCCCCCCCC[CH2][Sn]([CH2]CCCCCCCCCCC)([CH2]CCCCCCCCCCC)[O][Sn]([CH2]CCCCCCCCCCC)([CH2]CCCCCCCCCCC)[CH2]CCCCCCCCCCC [TDTO, Bis(tridodecyltin) oxide]
- MIBK Double Rubs [3, 10]: 1
- MIBK Double Rubs [3, 11]: 150
- MIBK Double Rubs [3, 12]: ≥ 200
- MIBK Double Rubs [3, 13]: ≥ 200
- MIBK Double Rubs [3, 14]: 200
- MIBK Double Rubs [3, 15]: 50

Compound: CCCCC(CC)[CH2][Sn]([CH2]C(CC)CCCC)([CH2]C(CC)CCCC)[O][Sn]([CH2]C(CC)CCCC)([CH2]C(CC)CCCC)[CH2]C(CC)CCCC (centres unmarked) [TEHTO, Bis[tri(2-ethylhexyl)tin] oxide]
- MIBK Double Rubs [3, 6]: 1
- MIBK Double Rubs [3, 7]: 50
- MIBK Double Rubs ([3]; 150° C. cure, 1% Sn on solids): ≥ 200
- MIBK Double Rubs [3, 8]: ≥ 200
- MIBK Double Rubs [3, 9]: ≥ 200
- MIBK Double Rubs ([3]; 180° C. cure, 1% Sn on solids): ≥ 200

Compound: CCCCCCC[CH2][Sn]([CH2]CCCCCCC)([CH2]CCCCCCC)[O][Sn]([CH2]CCCCCCC)([CH2]CCCCCCC)[CH2]CCCCCCC [TOTO, Bis(trioctyltin)oxide]
- Gel Time [4]: > 60 min
- Increase in viscosity [4]: no inc. in visc.
- Rating for Abrasion by MIBK Rub Test ([1]; 135 °C oven): 3
- Rating for Abrasion by MIBK Rub Test ([1]; 148.8 °C oven): 1
- Rating for Abrasion by MIBK Rub Test ([1]; 165.5-185 °C oven): 1
- % Weight Loss (acetone) ([2]; 140 °C cure, 0.2% metal on solids): 60.3%
- % Weight Loss (acetone) ([2]; 150 °C cure, 0.2% metal on solids): 29.4%
- % Weight Loss (acetone) ([2]; 160 °C cure, 0.2% metal on solids): 7.2%
- % Weight Loss (acetone) ([2]; 180 °C cure, 0.2% metal on solids): 0.5%
- % Weight Loss (acetone) ([2]; 200 °C cure, 0.2% metal on solids): 0.7%
- MIBK Double Rubs [3, 6]: 20
- MIBK Double Rubs [3, 7]: 40
- MIBK Double Rubs ([3]; 150° C. cure, 1% Sn on solids): ≥ 200
- MIBK Double Rubs [3, 8]: ≥ 200
- MIBK Double Rubs [3, 9]: ≥ 200
- MIBK Double Rubs ([3]; 180° C. cure, 1% Sn on solids): ≥ 200

Compound: CCCCCCCCCCCC[S][Sn]([CH2]CCCCCCC)([CH2]CCCCCCC)[CH2]CCCCCCC [TOTS, Trioctyltin laurylmercaptide]
- MIBK Double Rubs [3, 10]: 2
- MIBK Double Rubs [3, 11]: 2
- MIBK Double Rubs [3, 12]: 3
- MIBK Double Rubs [3, 13]: 2
- MIBK Double Rubs [3, 14]: 50
- MIBK Double Rubs [3, 15]: ≥ 200

Compound: [OH][Sn]([c]1ccccc1)([c]1ccccc1)[c]1ccccc1 [TPTH, Triphenyltin hydroxide]
- MIBK Double Rubs [3, 7]: 5

Compound: c1cc[c]([Sn]([O][Sn]([c]2ccccc2)([c]2ccccc2)[c]2ccccc2)([c]2ccccc2)[c]2ccccc2)cc1 [TPTO, bis(triphenyltin)oxide]
- Rating for Abrasion by MIBK Rub Test ([1]; 135 °C oven): 2
- Rating for Abrasion by MIBK Rub Test ([1]; 148.8 °C oven): 1
- Rating for Abrasion by MIBK Rub Test ([1]; 165.5-185 °C oven): 1

Compound: CC(=O)[O-].CC(=O)[O-].[Zn+2] [Zn Acetate]
- % Weight Loss (acetone) [2, 16]: 23.8%
- % Weight Loss (acetone) [2, 17]: 10.1%
- % Weight Loss (acetone) [2, 18]: 5.4%
- % Weight Loss (acetone) [2, 19]: 14.0%
- % Weight Loss (acetone) [2, 20]: 26.5%

Compound: O=C([O-])C(=O)[O-].[Zn+2] [ZnO xalate]
- % Weight Loss (acetone) [2, 16]: 84.9%
- % Weight Loss (acetone) [2, 17]: 83.1%
- % Weight Loss (acetone) [2, 18]: 76.6%
- % Weight Loss (acetone) [2, 19]: 56.2%
- % Weight Loss (acetone) [2, 20]: 28.3%

Compound: [O]=[Zn] [ZnO, zinc oxide]
- % Weight Loss (acetone) [2, 16]: 17.8%
- % Weight Loss (acetone) [2, 17]: 7.0%
- % Weight Loss (acetone) [2, 18]: 3.3%
- % Weight Loss (acetone) [2, 19]: 3.1%
- % Weight Loss (acetone) [2, 20]: 5.2%

Compound: Dibutyl tin diacetate [reference compound]
- Gel Time [4]: 44.5 min

Compound: Tricyclohexyltin oxide [TCTH]
- % Weight Loss (acetone) [2, 6]: 63.8%
- % Weight Loss (acetone) [2, 7]: 41.2%
- % Weight Loss (acetone) ([2]; 150° C. cure, 1% Sn on solids): 17.6%
- % Weight Loss (acetone) [2, 8]: 5.1%
- % Weight Loss (acetone) [2, 9]: 2.1%
- % Weight Loss (acetone) ([2]; 180° C. cure, 1% Sn on solids): 5.4%
- MIBK Double Rubs [3, 6]: 1
- MIBK Double Rubs [3, 7]: 5
- MIBK Double Rubs ([3]; 150° C. cure, 1% Sn on solids): 100
- MIBK Double Rubs [3, 8]: ≥ 200
- MIBK Double Rubs [3, 9]: ≥ 200
- MIBK Double Rubs ([3]; 180° C. cure, 1% Sn on solids): ≥ 200

Compound: Trioctyltin acetate [TOTA]
- Gel Time [4]: > 60 min
- Increase in viscosity [4]: no inc. in visc.
- % Weight Loss (acetone) [2, 6]: 56.3%
- % Weight Loss (acetone) [2, 7]: 32.1%
- % Weight Loss (acetone) ([2]; 150° C. cure, 1% Sn on solids): 20.3%
- % Weight Loss (acetone) [2, 8]: 3.0%
- % Weight Loss (acetone) [2, 9]: 1.1%
- % Weight Loss (acetone) ([2]; 180° C. cure, 1% Sn on solids): 2.7%
- % Weight Loss (acetone) [2, 10]: 11.4%
- % Weight Loss (acetone) [2, 11]: 24.0%
- % Weight Loss (acetone) [2, 12]: 17.0%
- % Weight Loss (acetone) [2, 13]: 3.3%
- % Weight Loss (acetone) [2, 14]: 5.2%
- % Weight Loss (acetone) [2, 15]: 4.8%
- MIBK Double Rubs [3, 10]: 4
- MIBK Double Rubs [3, 11]: 2
- MIBK Double Rubs [3, 12]: 50
- MIBK Double Rubs [3, 13]: ≥ 200
- MIBK Double Rubs [3, 14]: ≥ 200
- MIBK Double Rubs [3, 15]: ≥ 200

Compound: Trioctyltin laurate [TOTL]
- % Weight Loss (acetone) [2, 6]: 68.4%
- % Weight Loss (acetone) [2, 7]: 58.6%
- % Weight Loss (acetone) ([2]; 150° C. cure, 1% Sn on solids): 42.1%
- % Weight Loss (acetone) [2, 8]: 14.3%
- % Weight Loss (acetone) [2, 9]: 0.1%
- % Weight Loss (acetone) ([2]; 180° C. cure, 1% Sn on solids): -2.7%
- MIBK Double Rubs [3, 6]: 2
- MIBK Double Rubs [3, 7]: 2
- MIBK Double Rubs ([3]; 150° C. cure, 1% Sn on solids): 2
- MIBK Double Rubs [3, 8]: 20
- MIBK Double Rubs [3, 9]: ≥ 200
- MIBK Double Rubs ([3]; 180° C. cure, 1% Sn on solids): ≥ 200

Compound: dibutyltin dilaurate [DBTDL, reference compound]
- GEL TIME ([5]; 0.095% Sn): 31 min
- GEL TIME ([5]; 0.15% Sn): 19 min and 19.4 min
